42 sequences from paper PMC7819943, “Rice protein-binding microarrays: a tool to detect cis-acting elements near promoter regions in rice” can be followed below.

The chains behind the UniProt entries cited, without tags or fusion partners.
UniProt Q0JBA9, entry or part of it: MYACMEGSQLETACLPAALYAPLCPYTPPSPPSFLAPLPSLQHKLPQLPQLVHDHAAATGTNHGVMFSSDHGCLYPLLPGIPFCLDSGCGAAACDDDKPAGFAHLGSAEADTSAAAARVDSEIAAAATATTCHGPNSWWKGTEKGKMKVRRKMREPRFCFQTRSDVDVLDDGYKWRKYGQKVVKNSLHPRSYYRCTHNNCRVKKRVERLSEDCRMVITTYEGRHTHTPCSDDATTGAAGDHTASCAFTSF

Some of the results follow.

The experiment deals with OsWRKY34 (Oryza sativa, UniProt Q0JBA9 1-250). Put plainly: protein-binding microarray (RPBM); PBS, 2% BSA, 51.3 ng/ul salmon testes DNA, 50 uM zinc acetate, 200 nM TF, 25 C, 1 h; high values mean tight binding. As to conditions: protein: recombinant; tags: N-terminal polyhistidine and DsRed monomer fusion (pET32a); label: CyDye5-dUTP incorporated in the synthesized complementary strand; 3' TTTTT single-stranded linker to array surface; dsDNA, one strand shown. Put shortly:
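Polyhistidine-tagged DsRed fusions of transcription factors, joined at the N-terminus, were expressed in E. coli BL21-CodonPlus and isolated on Ni–NTA. They were incubated at 200 nM for 1 h at 25 °C on a custom Agilent array, double-stranded and BSA-blocked, in PBS with 2% BSA, salmon testes DNA and 50 µM zinc acetate. The binding signal is per-feature fluorescence intensity (arbitrary units) read on an Axon 4000B scanner after washing.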
In the case of “TGCGTATCGTCGATCATCGTTGGTCCGTGCGTTCGTTAGTCGGAGTCACCTAGTGCAG”, the binding signal is 9460 fluorescence intensity (a.u.).

Regarding “GCGATCTTCCAAGAGTACATCTCCTTCGTCGCCTCGTGCGCGGAGTCACCTAGTGCAG”, the binding signal was 8570 fluorescence intensity (a.u.).

Consider “TATTCTTTCTCACGTAACGATTTTTTTTCATCATTAAGTTCGGAGTCACCTAGTGCAG”, for which the binding signal is 8230 fluorescence intensity (a.u.).

Take “CTTTTAATTTTTCCATCACATCGAAACTTTTCTACACACACGGAGTCACCTAGTGCAG”: the binding signal is 9690 fluorescence intensity (a.u.).

In the case of “GCGGCGATTGGGATTTGGGAGGGAGACGCGGGTATTTGAACGGAGTCACCTAGTGCAG”, the binding signal was 11100 fluorescence intensity (a.u.).

Turning to “ACTGTTTACTTTCTACTACCAACACTTTGAAGTCAATATACGGAGTCACCTAGTGCAG”, the binding signal is 8190 fluorescence intensity (a.u.).

Regarding “CCTTTTCGTTTATCTCCATCGATTTTGGTAGCTATACTAGCGGAGTCACCTAGTGCAG”, the binding signal is 9900 fluorescence intensity (a.u.).

On to “AACATGGGGCTAAAAACACGGTACTACTACCGTACCTTCACGGAGTCACCTAGTGCAG”, for which the binding signal was 9240 fluorescence intensity (a.u.).

Take “TCAAGGGCCCCTTTTATTTGCATGCACCACACCATGTTTCCGGAGTCACCTAGTGCAG”: the binding signal was 9380 fluorescence intensity (a.u.).

With “CCTGCCTATCTCTCTATAGTTTGTGTCTGTTTTCGTGTGCCGGAGTCACCTAGTGCAG”, the binding signal is 10000 fluorescence intensity (a.u.).

Take “ACTCGCGCCGCCCTGCCCTGTCGTCCCGCCGCATCACCCGCGGAGTCACCTAGTGCAG”: the binding signal is 9150 fluorescence intensity (a.u.).

Regarding “TGAGTTTGTTTGCTGGGTTGGTTCGTGCGTTTTCTTGGATCGGAGTCACCTAGTGCAG”, the binding signal was 18800 fluorescence intensity (a.u.).

On to “CATTCTCGCGACGACTCGTGCTGACTGCTTCGTCACCAACCGGAGTCACCTAGTGCAG”, for which the binding signal was 8220 fluorescence intensity (a.u.).

Consider “CTGCTCTATATATCAAGCCGAAGCCGAAGCCGCCTTGACCCGGAGTCACCTAGTGCAG”, for which the binding signal is 8192 fluorescence intensity (a.u.).

Regarding “AATATTTTTCAACTCCACGCATTTTCTTCACATATCAATGCGGAGTCACCTAGTGCAG”, the binding signal was 8510 fluorescence intensity (a.u.).

Turning to “AAGGGGATCGGAGATGCCGCTGGGCAAGTACTACTGCGACCGGAGTCACCTAGTGCAG”, the binding signal was 29900 fluorescence intensity (a.u.).

On to “TTTGGCACACATCATTTTTTTCAGGTCACCAGTAGCTATCCGGAGTCACCTAGTGCAG”, for which the binding signal was 8120 fluorescence intensity (a.u.).

As to “CAACCTAATTGGCATTTACTTTTATTGTATCATTTTGTTCCGGAGTCACCTAGTGCAG”, the binding signal was 9850 fluorescence intensity (a.u.).

For “TTTCAAAACTCGTAAACCCGCGCAACACCAAAACCACTTTCGGAGTCACCTAGTGCAG”, the binding signal is 8380 fluorescence intensity (a.u.).

Consider “TATTTTTACCCTTTACGAAACTATTGTTGTCTGTTTCTATCGGAGTCACCTAGTGCAG”, for which the binding signal was 9850 fluorescence intensity (a.u.).

Turning to “CCAAAATCTGCATTCTACTATTGCGTTCACCGCCTATAAACGGAGTCACCTAGTGCAG”, the binding signal was 8710 fluorescence intensity (a.u.).

Regarding “ACGGTCAAATGAAATGTTTGACCGGTAAGAAAAATCAAACCGGAGTCACCTAGTGCAG”, the binding signal is 10500 fluorescence intensity (a.u.).

With “CCCATCACCCGGCGCTCGCATCGCGTCGCACTCGCCCAACCGGAGTCACCTAGTGCAG”, the binding signal was 9950 fluorescence intensity (a.u.).

For the sequence “GGGTATACCGGTAATAATCACTCCAATACATATTTTTCATCGGAGTCACCTAGTGCAG”, the binding signal was 9280 fluorescence intensity (a.u.).

On to “ACTTTGCAATTTGACATGTCAAAACACCCACACATAATCACGGAGTCACCTAGTGCAG”, for which the binding signal is 9540 fluorescence intensity (a.u.).

On to “CCCCTCGCGCCACCGCCGCCCGCATCCGCGCCGTCACCGGCGGAGTCACCTAGTGCAG”, for which the binding signal is 8490 fluorescence intensity (a.u.).

Consider “CGGCGTCGTCACCCTCGTTGTAGTGTATCCAAAGCTCGCGCGGAGTCACCTAGTGCAG”, for which the binding signal was 8800 fluorescence intensity (a.u.).

For the sequence “ACCCCATCGTTAGAGTTCGTGTTTTACCTTTCGTTTTGTACGGAGTCACCTAGTGCAG”, the binding signal was 8880 fluorescence intensity (a.u.).

As to “CGTGCTGTACCACGTTTCTGCATGCCTCGTATTGGCCAAGCGGAGTCACCTAGTGCAG”, the binding signal is 8560 fluorescence intensity (a.u.).

For the sequence “GCTGCTGCTGCCGCCCGGCCGCCACCCGTGACCCGCGCCACGGAGTCACCTAGTGCAG”, the binding signal is 8860 fluorescence intensity (a.u.).

For “GACCCGTGCCGCCTCCTCGCCGCCGTCGTCGCGCCCCGCGCGGAGTCACCTAGTGCAG”, the binding signal was 9590 fluorescence intensity (a.u.).

Turning to “AGAGAGAGCGTGGGTGGGGTGGGTGCTCTGGGTGACTGGGCGGAGTCACCTAGTGCAG”, the binding signal was 10400 fluorescence intensity (a.u.).

On to “GCTGCTGCCGCCCGTTGCGCGCCCGTCCCCGTCTCGTGTCCGGAGTCACCTAGTGCAG”, for which the binding signal was 8420 fluorescence intensity (a.u.).

In the case of “CTGTGCCAGCAGCATTTGCTCTTCTCTCGAACTGGCTTACCGGAGTCACCTAGTGCAG”, the binding signal is 8530 fluorescence intensity (a.u.).

Turning to “CCTTGGATTCTCATCAAATATTTAATTTATCTCTTCATTTCGGAGTCACCTAGTGCAG”, the binding signal is 9590 fluorescence intensity (a.u.).

Turning to “GGGTGTGTAAGGGTAGGTGGAGGGGTGGGTGATGCGAGATCGGAGTCACCTAGTGCAG”, the binding signal was 20400 fluorescence intensity (a.u.).

Regarding “ACTTTTGCTAGACCAAACAACACTTTTGGTCAATATACACCGGAGTCACCTAGTGCAG”, the binding signal was 8740 fluorescence intensity (a.u.).

As for “ACAGCGCCTGATGTCCAAGTGCCTTTTCGCTGCCGTCGCTCGGAGTCACCTAGTGCAG”, the binding signal is 9030 fluorescence intensity (a.u.).

“ATGCACCAAATCAGTTTCTTGTACAACCGTTCGGTCTATTCGGAGTCACCTAGTGCAG”: the binding signal is 9730 fluorescence intensity (a.u.).

Take “CCGGGGAAATCCTCTGGGGATTTGTGGGTGGTTTTGGGCTCGGAGTCACCTAGTGCAG”: the binding signal was 9980 fluorescence intensity (a.u.).

In the case of “GGTGATTCTATTACTTCTAGGTGACGTATATTTGTCAATGCGGAGTCACCTAGTGCAG”, the binding signal is 9280 fluorescence intensity (a.u.).

For “TTCTATCAAAATCCTACGTTTTTCCTATTTCTATATTTTCCGGAGTCACCTAGTGCAG”, the binding signal was 8560 fluorescence intensity (a.u.).
